PubChem BioAssay AID1259424, University of Nebraska Medical Center | 2018
Aim: 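Rank knockdowns across the genome by resemblance to the KSR1 depletion profile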 (primary screen). System: human HCT116 colon cancer cells. Reagents: siRNA pool against human genes, 50 nM. Read-out: 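Six signature mRNAs by branched-DNA multiplex assay, scaled to two housekeeping genes and non-targeting median, log2; matched to mean KSR1 knockdown profile by Pearson correlation and euclidean distance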. Direction: mean correlation with KSR1 profile and KSR1 correlation: higher = expression change more like KSR1 knockdown; mean distance from KSR1 profile: higher = expression change less like KSR1 knockdown.
The deposit covers about 14,000 reagents; shown is a part drawn at random. 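Higher correlation or smaller distance means closer resemblance to KSR1 loss; control wells, including KSR1 knockdowns, recur on many plates.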 Reagent sequences are not shown. Not given: the time to read-out.

no.	gene symbol	PubChem SID	mean correlation with KSR1 profile	mean distance from KSR1 profile	KSR1 correlation, replicate 1	KSR1 correlation, replicate 2	KSR1 correlation, replicate 3
1	RBCK1 (RANBP2-type and C3HC4-type zinc finger containing 1)	SID363997270	-0.548	2.89	-0.64	-0.441	-0.63
2	ADGRV1 (adhesion G protein-coupled receptor V1)	SID364003776	0.306	2.35	0.259	0.104	0.623
3	MYL9 (myosin light chain 9)	SID363996940	0.608	0.946	0.653	0.176	0.332
4	MYO3A (myosin IIIA)	SID364000311	-0.0622	3.61	0.106	0.111	-0.223
5	H1-0 (H1.0 linker histone)	SID363996234	0.588	1.77	0.55	0.358	0.763
6	PRDX4 (peroxiredoxin 4)	SID363997217	0.132	1.56	0.243	-0.0444	0.0806
7	FAM50B (family with sequence similarity 50 member B)	SID363998081	-0.622	3.22	-0.6	-0.491	-0.753
8	PSMD12 (proteasome 26S subunit, non-ATPase 12)	SID363993972	-0.456	3.71	-0.467	-0.465	-0.41
9	TRA2A (transformer 2 alpha homolog)	SID363998414	0.677	1.61	0.539	0.604	0.677
10	PIGF (phosphatidylinositol glycan anchor biosynthesis class F)	SID363993811	-0.424	2.75	-0.217	-0.332	-0.52
11	RAN (RAN, member RAS oncogene family)	SID363997146	-0.269	1.49	-0.202	-0.00534	-0.231
12	SLC9A7	SID364004079	0.655	2.01	0.64	0.701	0.381

Continued; the last 2 above are carried over.
no.	gene symbol	PubChem SID	mean correlation with KSR1 profile	mean distance from KSR1 profile	KSR1 correlation, replicate 1	KSR1 correlation, replicate 2	KSR1 correlation, replicate 3
11	RAN (RAN, member RAS oncogene family)	SID363997146	-0.269	1.49	-0.202	-0.00534	-0.231
12	SLC9A7	SID364004079	0.655	2.01	0.64	0.701	0.381
13	TNNT3 (troponin T3, fast skeletal type)	SID363997528	-0.04	1.92	0.184	-0.246	0.128
14	MAD2L2 (mitotic arrest deficient 2 like 2)	SID363997160	-0.246	3.41	-0.28	-0.289	-0.286
15	ICAM4	SID363992801	-0.215	4.37	-0.387	-0.27	-0.0885
16	PALMD (palmdelphin)	SID364000481	-0.388	2.94	-0.581	-0.407	-0.283
17	PER2 (period circadian regulator 2)	SID363994952	-0.52	2.37	-0.533	-0.602	-0.496
18	DDO (D-aspartate oxidase)	SID363994724	-0.233	1.77	-0.325	-0.106	-0.261
19	ANKZF1 (ankyrin repeat and zinc finger peptidyl tRNA hydrolase 1)	SID364000771	-0.265	3.58	-0.114	-0.324	-0.285
20	SULT4A1 (sulfotransferase family 4A member 1)	SID363998777	-0.411	1.94	-0.455	-0.625	0.0292
21	BYSL (bystin like)	SID363995063	-0.295	1.62	0.491	-0.276	-0.317
22	DYNLL2 (dynein light chain LC8-type 2)	SID364004493	-0.635	2.82	-0.589	-0.686	-0.646
23	CD2 (CD2 molecule)	SID363992986	-0.388	1.42	-0.257	-0.487	-0.204
24	HAAO (3-hydroxyanthranilate 3,4-dioxygenase)	SID363998138	-0.497	3.01	-0.43	-0.587	-0.315
25	ARSB (arylsulfatase B)	SID363991385	0.0991	1.86	-0.26	0.354	-0.0218
26	TKTL2 (transketolase like 2)	SID364003793	0.875	0.906	0.565	0.88	0.924
27	HPR (haptoglobin-related protein)	SID364001937	0.809	1.96	0.733	0.758	0.828
28	APPBP2 (amyloid beta precursor protein binding protein 2)	SID363997195	-0.695	1.36	-0.605	-0.404	-0.827
29	RRAD	SID363995169	0.471	2.45	0.498	0.287	0.354
30	CLSTN2 (calsyntenin 2)	SID364002357	-0.347	2.02	-0.505	-0.159	0.18
31	MBOAT7	SID364002774	0.235	3.84	0.193	0.0322	0.243
32	PTTG3P (pituitary tumor-transforming 3, pseudogene)	SID364001942	-0.467	2.63	-0.387	-0.538	-0.0829
33	RPS3 (ribosomal protein S3)	SID363992298	0.451	1.34	0.251	-0.376	0.564
34	HOXB9 (homeobox B9)	SID364002681	-0.246	3.98	-0.244	-0.272	-0.19
